The other results are listed elsewhere or left out.
What follows are molecules tested on T1, CTL2-GFP (C. trachomatis L2/434/Bu, GFP-expressing). Details: bulk GFP, single well; 28.5 h, 10 µM; inhibitor.
T1 construct: L2/434/Bu, GFP-expressing
Design: species or system HeLa; Intracellular C. trachomatis growth in HeLa cells, bulk GFP fluorescence relative to DMSO

Row | SMILES | % of control remaining [%]
1 | NC(=O)COc1cccc(/C=C2/SC(Nc3cccc(C(=O)O)c3)=NC2=O)c1 [CBK265027] | 97.969
2 | Cn1c(C(=O)NC2CCOC(C)(C)C2)cc2ccccc21 (stereo not drawn) [CBK304344] | 120.098
3 | CSCCC(=O)NCc1ccc(-c2csnn2)cc1 [CBK149304] | 115.963
4 | C/C(=N\NC(=O)CCC(=O)Nc1ccc(I)cc1)c1ccc(O)cc1O [CBK261971] | 109.369
5 | CCn1cnc2sc(-c3ccccc3)cc2c1=O [CBK287952] | 158.387
6 | Cc1csc2[nH]c(C(C)(C)C)c[n+]12 [CBK025384B] | 106.481
7 | CCn1c(N2CCC(C(=O)NC(C)C)CC2)nc2ccccc21 [CBK283982] | 134.012
8 | O=C(NCc1nnc(-c2cccs2)o1)c1cccc(F)c1F [CBK284634] | 94.4752
9 | N#CC1C(=S)NC2=C(CCCC2)C12CCCCC2 (stereo not drawn) [CBK288493] | 90.7956
10 | OCCN(Cc1cccs1)Cc1c[nH]nc1-c1cccs1 [CBK282599] | 112.557
11 | COc1cc(/C=C/CN2CCC(C(=O)NC(C)c3ccc(F)cc3)CC2)ccc1OC(C)=O (stereo not drawn) [CBK148061] | 100
12 | CC(=O)N1CCc2c([nH]c3ccccc23)[C@@]12CCN(Cc1ccc(F)cc1)C2 [CBK074955] | 119.257
13 | Cc1nc2c(c(=O)[nH]1)CCN(Cc1cccc(Oc3ccccc3)c1)C2 [CBK283989] | 127.907
14 | Cc1c(CN2CCC3(CC2)CC(c2ccccc2)CN(C)C3)cnn1C (stereo not drawn) [CBK306666] | 122.75
15 | Cc1ccc(N(C(C)C(=O)Nc2ccccc2C(F)(F)F)S(C)(=O)=O)cc1 (stereo not drawn) [CBK268796] | 117.205
16 | O=C(NCc1ccncc1)c1ncoc1-c1ccc(F)cc1 [CBK282354] | 150.479
17 | COc1ccccc1OCCOc1c(Cl)cc(/C=C2\SC(=S)NC2=O)cc1Cl [CBK264848] | 129.637
18 | CCn1c(=O)n(CC(=O)NCc2ccccc2F)c2cccnc21 [CBK283890] | 119.652
19 | O=C1N(Cc2cccc3ccccc23)c2ccccc2C1(c1ccc(O)cc1)c1ccc(O)cc1 [CBK261410] | 67.1065
20 | O=C(N[C@@H](Cn1cc(Cl)c(=O)[nH]c1=O)C(=O)O)C1CCCC1 [CBK289658] | 133.063
21 | O=C(O)CCN1C(=O)c2ccc(Oc3ccc(NC(=O)c4ccc(Cl)c(Cl)c4)cc3)cc2C1=O [CBK267400] | 136.843
22 | CCC(=O)N1CCCc2cc(C(O)CN3CCCC(C)C3)ccc21 (stereo not drawn) [CBK283049] | 119.959
23 | Cc1cccc(C(=O)Nc2cccc(OCC(=O)O)c2)c1 [CBK268599] | 107.096
24 | CCCNC(=O)CN1CCC(NC(=O)Cn2cc(Br)ccc2=O)CC1 [CBK305665] | 89.9022
25 | O=C(O)CC1SC(Nc2cccc(Cl)c2)=NC1=O (stereo not drawn) [CBK131683] | 117.051
26 | OC(CN1CCN(C(c2ccccc2)c2ccccc2)CC1)Cn1c2ccccc2c2ccccc21 (stereo not drawn) [CBK262730] | 56.5945

Row | SMILES | % of control remaining [%]
27 | O=C(CCn1cccn1)NC(Cc1ccsc1)c1cccnc1 (stereo not drawn) [CBK285393] | 123.778
28 | Cc1cc(NC(=O)c2nn3c(C(F)(F)F)cc(-c4ccccc4)nc3c2Cl)nn1CC(=O)N1CCOCC1 [CBK268209] | 85.0568
29 | Clc1ccc(COc2cccc3cccnc23)cn1 [CBK002718] | 91.7888
30 | CN(C)CCN(C)C(=O)c1ccc(-c2ccco2)nc1N(C)C [CBK106078] | 113.687
31 | COc1ccc(CN(CCN(C)C)C(=O)NCc2ccc(Cl)cc2)cc1OC [CBK159303] | 126.874
32 | O=C(NC[C@H]1O[C@@H](CC(=O)N2CCN(c3ccccc3)CC2)[C@H](O)[C@@H]1O)c1ccccc1 [CBK288920] | 110.423
33 | O=C(NCCCN1CCCC1)Nc1ccccc1[N+](=O)[O-] [CBK267959] | 137.399
34 | Cc1cc2c(N3CCN(Cc4nc5ccccc5[nH]4)CC3)ncnc2s1 [CBK268213C] | 88.7485
35 | CC(C)[C@H](CO)Nc1nc(-c2ccc(N3CCOCC3)cc2)cn2ccnc12 [CBK066151] | 109.613
36 | CCCNc1nc(-c2ccc(F)c(F)c2)cn2ccnc12 [CBK066573] | 187.771
37 | N#Cc1ccccc1N1CCN(c2cncc(-c3cccs3)n2)CC1 [CBK065656] | 125.308
38 | CCOc1ccc(NC(=O)C2CCC(C)(C(=O)O)C2(C)C)cc1 (stereo not drawn) [CBK295665] | 141.158
39 | CC(C)c1cccc2c1OC(C(C)C)C(=O)N2 (stereo not drawn) [CBK009286] | 113.234
40 | CN(C)C(=O)c1ccc(-c2ccc(COC3CCN(C(=O)Cc4ccc(F)cc4)CC3)c(S(C)(=O)=O)c2)cc1 [CBK155963] | 106.293
41 | Nc1nc(SCC(=O)NCc2ccc3c(c2)OCO3)n[nH]1 [CBK266580] | 167.117
42 | O=C(N/N=C/c1cccnc1)c1cccc(F)c1 [CBK261689] | 95.0197
43 | COc1nccnc1OC1CCN(Cc2ccc(Cl)cc2)CC1 [CBK084240] | 87.8614
44 | NS(=O)(=O)c1ccc(NC(=O)CC2SC(=O)NC2=O)cc1 (stereo not drawn) [CBK263855] | 96.6684
45 | COc1nccnc1N1CCN(CCOc2ccccc2)CC1 [CBK084230] | 87.197
46 | CCCC/C=C/c1cnc2[nH]c(=O)n(Cc3cccs3)c2n1 [CBK064373] | 166.045
47 | Cc1c(C(=O)N(C)Cc2csc(Br)c2)nnn1C1CCNCC1 [CBK304491] | 112.651
48 | O=C(CS(=O)(=O)c1ccccc1)N1CCN2C(=O)N(C3CCCCC3)C(=O)[C@H]2C1 [CBK289580] | 105.943
49 | O=c1cc(CO)oc(CN2CCCCCC2)c1O [CBK288363] | 128.759
50 | O=C(N[C@H]1C[C@@H]2C(=O)N[C@H]3CCN(C(=O)Cc4cccs4)[C@@H]3C(=O)N2C1)C1CCC1 [CBK289269] | 92.6101
51 | C[N+](C)(C)CCC(=O)CCC(=O)O [CBK262012I] | 100
52 | COc1ccc(NC(=O)C(C)Sc2nc(N)cc(O)n2)cc1 (stereo not drawn) [CBK265699] | 122.24

A draw from above in order of heavy-atom count, low to high:
Row | SMILES | % of control remaining [%]
39 | CC(C)c1cccc2c1OC(C(C)C)C(=O)N2 (stereo not drawn) [CBK009286] | 113.234
14 | Cc1c(CN2CCC3(CC2)CC(c2ccccc2)CN(C)C3)cnn1C (stereo not drawn) [CBK306666] | 122.75
21 | O=C(O)CCN1C(=O)c2ccc(Oc3ccc(NC(=O)c4ccc(Cl)c(Cl)c4)cc3)cc2C1=O [CBK267400] | 136.843
28 | Cc1cc(NC(=O)c2nn3c(C(F)(F)F)cc(-c4ccccc4)nc3c2Cl)nn1CC(=O)N1CCOCC1 [CBK268209] | 85.0568

(list continues)

Row | SMILES | % of control remaining [%]
53 | Cc1sc(NC(=S)NC(=O)COc2ccc(Br)cc2Cl)c(C(N)=O)c1C [CBK266127] | 150.835
54 | COc1ccccc1CC(C)NC(=O)CC1CCN(c2nc(C)cc(C)n2)CC1 (stereo not drawn) [CBK285956] | 109.826
55 | Cc1[nH]c(=O)[nH]c(=O)c1CC(=O)NCC1CCN(c2ccccc2F)C1 (stereo not drawn) [CBK304325] | 115.127
56 | COc1ccc(C(=O)N2CCC3(CCCN(CCN4C(=O)c5ccccc5C4=O)C3)C2)cc1OC (stereo not drawn) [CBK132862] | 74.0043
57 | O=C(CSc1nnc(-c2ccncc2)[nH]1)c1ccc(O)c(O)c1 [CBK264346] | 117.954
58 | O=C(O)c1ccc2c(c1)C(=O)N(c1cccnc1)C2=O [CBK287173] | 111.051
59 | Cc1cc(-c2cn3cc(C(=O)N4CCCCC4)nc3c(=O)n2C)c(C)o1 [CBK306890] | 183.353
60 | CCOc1cc(NC2CCN(C(=O)C3CCCCC3(C)C)CC2)ncn1 (stereo not drawn) [CBK305505] | 80.0952
61 | O=C(Nc1ccc(OC(F)(F)F)cc1)Nc1cc(-c2cccs2)n[nH]1 [CBK020563] | 16.102
62 | Nc1ccc(-c2nc3cc(C(=O)c4ccc5[nH]c(-c6ccc(N)cc6)nc5c4)ccc3[nH]2)cc1 [CBK262848] | 105.733
63 | O=S(=O)(NC1CCN(Cc2ccccc2)CC1)c1ccc(-c2ccon2)s1 [CBK062038] | 130.965
64 | COc1ccc(C(=O)N[C@H]2C[C@H]3C(=O)Nc4ccccc4C(=O)N3C2)cc1 [CBK289355] | 127.573
65 | CC(C)[C@@H](CO)Nc1nc(-c2ccccc2Cl)cn2ccnc12 [CBK037368] | 134.008
66 | COc1ccc(-c2cnc(NS(C)(=O)=O)c(C(=O)Nc3cc(C)nn3C)c2)cc1 [CBK076528] | 119.485
67 | Cn1c(CCNC(=O)C2CCCCC2)nc2cc([N+](=O)[O-])ccc21 [CBK268440] | 113.961
68 | C=CCN1C(=O)CC2(C1=O)C(=O)N(CCCn1c(=O)n(C)c3ccccc31)c1ccc(Cl)cc12 (stereo not drawn) [CBK075411] | 144.276
69 | CCN(CC)C(=O)CN1CCN(c2nccnc2Oc2ccc(F)cc2)CC1 [CBK083020T] | 125.728
70 | COc1ccc(OC[C@@H](N)C(C)C)cc1 [CBK284299] | 147.86
71 | Cc1ccc(C(=O)Nc2ccccc2C(=O)O)cc1S(=O)(=O)NCc1ccccc1 [CBK263212] | 123.381
72 | CCc1ccc(CNC(=O)c2ccc3c(c2)NC(=O)C(N2CCOCC2)S3)cc1 (stereo not drawn) [CBK071737] | 108.283
73 | c1ccc(-c2nccnc2NCc2ccco2)cc1 [CBK088642] | 146.605
74 | CCN(CC)C(=O)CN1CCN(c2nccnc2OCCN2C(=O)CCC2=O)CC1 [CBK084297] | 102.056
75 | O=C(Nc1cc2ccccc2c(N2CCNCC2)n1)c1ccccc1 [CBK028423T] | 117.805
76 | COc1ccc2[nH]c(CN3CCCC(c4nc(C)n[nH]4)C3)c(C)c2c1 (stereo not drawn) [CBK306904] | 129.78
77 | CC1CCc2nc(NC(=O)Cn3cccc(C(=O)Nc4ccc(F)cc4)c3=O)sc2C1 (stereo not drawn) [CBK286063] | 116.821
78 | Cc1nc(CN2CCC(C(=O)c3ccc(F)cc3)CC2)cs1 [CBK149147] | 128.772

Reference: paper PMC12040169 (PLOS Biology, 2025)
